Assay results: the supplement of paper PMC10849652
The list shows a part of the results.

The chains behind the UniProt entries cited, without tags or fusion partners. Where a name states a change or a piece, a line headed by the entry shows the natural chain unless it says otherwise.
UniProt Q16637, whole entry, looked up: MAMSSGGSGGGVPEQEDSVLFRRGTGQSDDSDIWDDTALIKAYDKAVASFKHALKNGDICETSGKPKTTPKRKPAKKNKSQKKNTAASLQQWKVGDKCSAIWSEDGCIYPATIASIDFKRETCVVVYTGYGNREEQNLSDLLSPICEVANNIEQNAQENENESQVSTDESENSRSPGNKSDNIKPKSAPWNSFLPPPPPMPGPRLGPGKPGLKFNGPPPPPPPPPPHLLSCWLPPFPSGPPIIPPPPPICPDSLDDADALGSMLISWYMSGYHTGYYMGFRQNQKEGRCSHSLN
UniProt O95721: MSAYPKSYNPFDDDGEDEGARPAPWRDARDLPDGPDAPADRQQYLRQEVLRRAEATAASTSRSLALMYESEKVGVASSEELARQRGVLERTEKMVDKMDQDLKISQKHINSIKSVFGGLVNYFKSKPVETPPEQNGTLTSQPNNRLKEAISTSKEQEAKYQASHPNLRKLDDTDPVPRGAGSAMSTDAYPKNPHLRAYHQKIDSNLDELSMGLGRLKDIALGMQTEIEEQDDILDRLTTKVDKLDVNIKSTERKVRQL
UniProt Q15506: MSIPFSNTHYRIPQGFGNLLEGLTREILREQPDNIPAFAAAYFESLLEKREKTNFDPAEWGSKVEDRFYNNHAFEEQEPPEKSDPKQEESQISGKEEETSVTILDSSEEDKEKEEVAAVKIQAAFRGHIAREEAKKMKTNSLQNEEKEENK
UniProt Q96SB8: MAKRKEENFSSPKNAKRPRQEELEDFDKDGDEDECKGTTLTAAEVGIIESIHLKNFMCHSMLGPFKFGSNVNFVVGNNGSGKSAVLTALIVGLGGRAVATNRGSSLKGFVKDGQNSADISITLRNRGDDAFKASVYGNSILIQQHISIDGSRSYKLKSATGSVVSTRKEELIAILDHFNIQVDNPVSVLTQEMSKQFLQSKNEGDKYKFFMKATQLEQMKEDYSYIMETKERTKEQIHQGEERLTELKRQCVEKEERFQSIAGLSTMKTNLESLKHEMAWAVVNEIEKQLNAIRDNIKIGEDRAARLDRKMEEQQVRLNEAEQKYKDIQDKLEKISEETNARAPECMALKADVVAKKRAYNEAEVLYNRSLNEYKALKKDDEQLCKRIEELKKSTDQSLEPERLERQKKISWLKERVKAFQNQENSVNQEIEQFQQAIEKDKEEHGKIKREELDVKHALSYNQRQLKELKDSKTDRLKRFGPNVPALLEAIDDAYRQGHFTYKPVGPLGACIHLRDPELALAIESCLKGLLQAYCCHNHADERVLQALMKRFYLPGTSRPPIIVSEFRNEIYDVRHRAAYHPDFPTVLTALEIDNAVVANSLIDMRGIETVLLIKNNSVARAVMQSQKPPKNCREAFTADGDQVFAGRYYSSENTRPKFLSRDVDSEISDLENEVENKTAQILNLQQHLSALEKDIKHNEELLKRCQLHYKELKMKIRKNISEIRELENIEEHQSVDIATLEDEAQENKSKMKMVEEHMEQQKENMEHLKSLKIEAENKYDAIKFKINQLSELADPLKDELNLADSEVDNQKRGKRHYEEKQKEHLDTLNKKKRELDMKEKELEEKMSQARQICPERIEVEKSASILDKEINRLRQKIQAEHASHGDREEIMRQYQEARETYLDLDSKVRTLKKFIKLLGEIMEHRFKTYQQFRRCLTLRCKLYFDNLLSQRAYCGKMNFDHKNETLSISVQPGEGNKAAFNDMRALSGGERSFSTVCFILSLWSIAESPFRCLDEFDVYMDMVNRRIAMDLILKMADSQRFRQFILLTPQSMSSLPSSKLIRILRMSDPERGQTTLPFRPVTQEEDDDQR
UniProt O75391: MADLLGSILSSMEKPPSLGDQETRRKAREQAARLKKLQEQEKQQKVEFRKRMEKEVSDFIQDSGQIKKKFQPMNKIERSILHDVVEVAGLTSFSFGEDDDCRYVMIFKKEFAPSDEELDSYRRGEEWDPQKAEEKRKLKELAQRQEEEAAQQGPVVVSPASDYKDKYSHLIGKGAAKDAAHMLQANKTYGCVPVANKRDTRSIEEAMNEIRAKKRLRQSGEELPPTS
UniProt O76070, whole entry, looked up: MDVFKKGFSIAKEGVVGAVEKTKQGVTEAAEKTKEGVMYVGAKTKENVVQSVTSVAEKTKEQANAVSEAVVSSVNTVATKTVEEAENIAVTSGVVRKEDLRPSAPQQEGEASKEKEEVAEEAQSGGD
UniProt Q8IYB5: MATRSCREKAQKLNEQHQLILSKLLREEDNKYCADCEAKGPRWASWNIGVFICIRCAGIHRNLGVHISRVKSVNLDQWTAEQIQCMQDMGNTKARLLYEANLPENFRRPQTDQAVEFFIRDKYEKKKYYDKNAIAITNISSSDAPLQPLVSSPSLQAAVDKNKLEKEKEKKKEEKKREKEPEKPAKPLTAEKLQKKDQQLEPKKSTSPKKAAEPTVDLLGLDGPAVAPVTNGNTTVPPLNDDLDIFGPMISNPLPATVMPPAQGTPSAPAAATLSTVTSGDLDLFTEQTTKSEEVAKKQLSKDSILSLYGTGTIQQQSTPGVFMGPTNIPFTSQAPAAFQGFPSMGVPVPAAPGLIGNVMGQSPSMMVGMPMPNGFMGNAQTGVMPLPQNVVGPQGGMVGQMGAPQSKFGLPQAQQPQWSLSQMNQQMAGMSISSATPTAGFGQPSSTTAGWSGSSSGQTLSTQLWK
UniProt Q96EX1: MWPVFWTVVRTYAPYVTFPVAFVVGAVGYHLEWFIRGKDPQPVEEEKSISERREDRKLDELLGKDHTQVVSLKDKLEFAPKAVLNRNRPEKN
UniProt Q8NDV3: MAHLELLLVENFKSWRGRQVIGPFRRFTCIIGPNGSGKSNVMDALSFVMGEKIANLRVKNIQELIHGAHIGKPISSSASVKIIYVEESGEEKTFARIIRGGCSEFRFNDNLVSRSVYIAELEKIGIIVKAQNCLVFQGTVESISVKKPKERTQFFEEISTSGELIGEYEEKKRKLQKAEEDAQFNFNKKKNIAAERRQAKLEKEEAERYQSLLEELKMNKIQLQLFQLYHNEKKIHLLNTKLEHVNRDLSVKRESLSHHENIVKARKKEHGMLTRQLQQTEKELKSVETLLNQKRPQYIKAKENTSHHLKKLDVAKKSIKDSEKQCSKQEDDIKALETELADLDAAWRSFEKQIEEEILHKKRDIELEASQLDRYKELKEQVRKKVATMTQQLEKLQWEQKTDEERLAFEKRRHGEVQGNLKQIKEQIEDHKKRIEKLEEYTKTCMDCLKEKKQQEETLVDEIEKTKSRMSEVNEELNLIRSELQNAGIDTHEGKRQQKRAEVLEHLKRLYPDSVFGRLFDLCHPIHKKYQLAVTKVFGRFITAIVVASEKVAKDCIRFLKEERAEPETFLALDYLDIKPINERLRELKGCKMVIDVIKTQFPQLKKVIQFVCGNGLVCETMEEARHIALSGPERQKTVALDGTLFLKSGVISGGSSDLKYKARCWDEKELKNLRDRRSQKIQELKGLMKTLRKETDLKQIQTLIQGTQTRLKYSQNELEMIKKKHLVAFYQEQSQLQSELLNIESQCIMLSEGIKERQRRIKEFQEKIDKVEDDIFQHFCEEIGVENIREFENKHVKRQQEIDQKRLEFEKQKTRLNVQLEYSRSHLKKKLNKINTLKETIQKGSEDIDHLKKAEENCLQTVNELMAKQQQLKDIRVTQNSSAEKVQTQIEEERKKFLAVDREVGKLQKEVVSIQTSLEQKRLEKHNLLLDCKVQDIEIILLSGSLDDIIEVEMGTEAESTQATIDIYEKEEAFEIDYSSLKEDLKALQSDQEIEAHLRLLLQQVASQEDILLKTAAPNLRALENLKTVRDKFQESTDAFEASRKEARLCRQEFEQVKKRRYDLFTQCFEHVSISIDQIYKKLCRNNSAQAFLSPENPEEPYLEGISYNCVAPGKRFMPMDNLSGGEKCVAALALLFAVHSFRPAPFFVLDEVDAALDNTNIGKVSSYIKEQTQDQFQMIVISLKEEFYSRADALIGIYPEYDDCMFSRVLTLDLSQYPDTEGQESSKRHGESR
UniProt Q8TAQ2, whole entry, looked up: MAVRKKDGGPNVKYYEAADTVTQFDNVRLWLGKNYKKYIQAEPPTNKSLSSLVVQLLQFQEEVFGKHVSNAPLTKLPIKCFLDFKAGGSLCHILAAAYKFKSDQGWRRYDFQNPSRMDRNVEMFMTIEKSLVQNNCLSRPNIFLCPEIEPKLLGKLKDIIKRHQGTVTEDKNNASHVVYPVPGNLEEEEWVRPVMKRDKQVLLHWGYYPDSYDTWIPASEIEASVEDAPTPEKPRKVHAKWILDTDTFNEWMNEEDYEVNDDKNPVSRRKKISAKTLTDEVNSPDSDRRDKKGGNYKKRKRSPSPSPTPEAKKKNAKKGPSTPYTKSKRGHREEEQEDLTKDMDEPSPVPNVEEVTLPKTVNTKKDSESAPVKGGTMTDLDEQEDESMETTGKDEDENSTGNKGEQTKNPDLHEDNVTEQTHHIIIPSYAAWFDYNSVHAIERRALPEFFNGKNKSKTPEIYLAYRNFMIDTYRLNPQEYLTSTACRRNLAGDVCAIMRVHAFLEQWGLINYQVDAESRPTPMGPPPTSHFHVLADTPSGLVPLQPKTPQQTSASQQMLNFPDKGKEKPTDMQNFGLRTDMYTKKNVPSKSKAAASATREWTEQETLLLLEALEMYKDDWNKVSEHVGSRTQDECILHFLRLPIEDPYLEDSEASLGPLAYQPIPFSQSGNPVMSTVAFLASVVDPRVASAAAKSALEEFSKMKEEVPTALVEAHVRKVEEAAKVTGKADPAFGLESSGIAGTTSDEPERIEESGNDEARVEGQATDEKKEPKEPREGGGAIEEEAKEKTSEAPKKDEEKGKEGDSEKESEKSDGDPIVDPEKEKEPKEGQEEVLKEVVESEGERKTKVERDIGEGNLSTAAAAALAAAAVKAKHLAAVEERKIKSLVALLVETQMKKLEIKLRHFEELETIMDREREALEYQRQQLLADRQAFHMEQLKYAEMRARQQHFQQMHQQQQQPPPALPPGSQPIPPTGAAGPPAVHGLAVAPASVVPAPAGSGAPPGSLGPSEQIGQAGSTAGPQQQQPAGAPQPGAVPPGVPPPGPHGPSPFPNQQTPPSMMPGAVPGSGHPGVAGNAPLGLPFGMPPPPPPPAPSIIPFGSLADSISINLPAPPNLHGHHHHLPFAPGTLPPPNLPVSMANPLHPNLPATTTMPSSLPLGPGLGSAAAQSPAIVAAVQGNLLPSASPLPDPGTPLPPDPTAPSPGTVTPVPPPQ
UniProt P08621, whole entry, looked up: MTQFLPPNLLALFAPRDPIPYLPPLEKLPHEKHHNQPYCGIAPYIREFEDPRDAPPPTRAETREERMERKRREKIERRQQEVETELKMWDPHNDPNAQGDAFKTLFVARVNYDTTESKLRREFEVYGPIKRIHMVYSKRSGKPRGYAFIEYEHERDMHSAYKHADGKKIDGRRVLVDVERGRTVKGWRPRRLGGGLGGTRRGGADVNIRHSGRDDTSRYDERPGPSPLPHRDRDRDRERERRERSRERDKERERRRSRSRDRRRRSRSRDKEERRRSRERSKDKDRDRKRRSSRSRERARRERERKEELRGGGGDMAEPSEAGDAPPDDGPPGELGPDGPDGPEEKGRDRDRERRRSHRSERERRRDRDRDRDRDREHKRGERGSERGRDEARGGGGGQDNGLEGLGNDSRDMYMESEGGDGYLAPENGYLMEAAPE
UniProt P62314, whole entry, looked up: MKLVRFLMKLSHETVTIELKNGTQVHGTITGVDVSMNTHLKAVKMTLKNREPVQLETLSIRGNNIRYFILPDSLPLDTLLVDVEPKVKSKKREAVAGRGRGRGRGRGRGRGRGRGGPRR
UniProt Q9Y5X2: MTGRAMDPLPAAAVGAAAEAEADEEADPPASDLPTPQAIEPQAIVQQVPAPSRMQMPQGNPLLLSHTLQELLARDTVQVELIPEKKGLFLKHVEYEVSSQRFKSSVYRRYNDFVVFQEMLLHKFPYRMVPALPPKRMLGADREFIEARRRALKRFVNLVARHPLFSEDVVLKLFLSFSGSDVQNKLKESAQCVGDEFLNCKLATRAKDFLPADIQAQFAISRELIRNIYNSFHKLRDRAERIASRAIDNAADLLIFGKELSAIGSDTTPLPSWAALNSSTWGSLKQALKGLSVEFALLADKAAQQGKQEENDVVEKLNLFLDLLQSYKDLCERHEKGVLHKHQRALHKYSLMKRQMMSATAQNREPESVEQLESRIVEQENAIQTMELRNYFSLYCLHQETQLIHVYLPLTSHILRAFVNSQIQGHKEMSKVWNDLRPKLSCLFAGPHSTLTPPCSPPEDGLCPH
UniProt P62306, whole entry, looked up: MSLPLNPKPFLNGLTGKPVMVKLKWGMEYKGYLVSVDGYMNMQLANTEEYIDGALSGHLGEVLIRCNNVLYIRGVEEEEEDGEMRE

Columns and labels:
Test in all cases: log2 fold change, soluble protein after heating vs DMSO (PISA); higher = thermal stabilisation; K562 cells, 10 uM, 30 min; active = over 0.2 and 3.5 SD of the protein, either way, in both replicates (recomputed)
[1] = compound: CC1=C(C=C(C=C1)NC(=O)C2=CC(=CC=C2)C(C)(C)C#N)NC3=CC4=C(C=C3)N=CN(C4=O)C
How it was run: (§1)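 K562 cells at 2×10^6 cells/mL were given 10 μM compound for 30 min. Aliquots then went through 3 min of heating across 48°C-58°C, were pooled, and were extracted in PBS with 0.5% NP-40 at 4°C, and the supernatant after 21,000xg for 90 min was quantified by TMTpro 16plex LC-MS/MS with channel sums equalised. Thermal stability relative to control samples, from duplicates, is given as log2 fold change.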

[2] = compound: CC1=C(C=C(C=C1)NC(=O)C2=CC(=CC=C2)N(C)C)NC(=O)C3=CC=C(C=C3)O
How it was run: as §1

[3] = compound: CC1=CC=C(C=C1)SC2=C3C=C(SC3=CN=C2)C(=O)N
How it was run: as §1

[4] = compound: CC1=NC(=CC=C1)C2=C(N=C(N2)C(C)(C)C)C3=CC4=NC=CN=C4C=C3
How it was run: as §1

[5] = compound: CCCCN(Cc1ccc(C(=O)NO)cc1)C(=O)Nc1ccccc1 [Nexturastat A]
How it was run: as §1

[6] = compound: CCCS(=O)(=O)Nc1ccc(F)c(C(=O)c2c[nH]c3ncc(-c4ccc(Cl)cc4)cc23)c1F [vemurafenib]
How it was run: as §1

[7] = compound: CCCS(=O)(=O)Nc1ccc(F)c(C(=O)c2c[nH]c3ncc(Cl)cc23)c1F
How it was run: as §1

[8] = compound: CCCc1cc(C)[nH]c(=O)c1CNC(=O)c1cc(-c2ccnc(N3CCN(C)CC3)c2)cc2c1cnn2C(C)C
How it was run: as §1

[9] = compound: CCN(CC)Cc1ccc2cc(COC(=O)Nc3ccc(C(=O)NO)cc3)ccc2c1 [givinostat]
How it was run: as §1

[10] = compound: CCN(CCCOc1ccc2c(Nc3cc(CC(=O)Nc4cccc(F)c4)[nH]n3)ncnc2c1)CCOP(=O)(O)O [barasertib]
How it was run: as §1

[11] = compound: CC[C@@H]1C(=O)N(C)c2cnc(Nc3ccc(C(=O)NC4CCN(C)CC4)cc3OC)nc2N1C1CCCC1
How it was run: as §1

[12] = compound: CC[C@@H]1C(=O)N(C)c2cnc(Nc3ccc(C(=O)N[C@H]4CC[C@H](N5CCN(CC6CC6)CC5)CC4)cc3OC)nc2N1C(C)C [volasertib]
How it was run: as §1

[13] = compound: CC[C@H](C)N1C=C(C2=C(C=C(C=C21)C3=CN=C(C=C3)N4CCNCC4)C(=O)NCC5=C(C=C(NC5=O)C)C)C
How it was run: as §1

[14] = compound: CC[C@H](C)[C@@H](C(=O)N[C@@H]([C@@H](C)O)C(=O)N[C@@H](CC(C)C)C(=O)[C@]1(CO1)C)NC(=O)[C@H]([C@@H](C)CC)N(C)C(=O)C [epoxomicin]
How it was run: as §1

[15] = compound: CCn1c(C(=O)N(C2CC2)C2CC2)cc2c3c(ncn3C)c(Nc3cc(C)n(C)n3)nc21
How it was run: as §1

[16] = compound: CCn1cc(-c2ccnc3[nH]c(-c4cccc(CN(C)C)c4)cc23)c(-c2ccc(NC(=O)N(C)C)cc2)n1
How it was run: as §1

[17] = compound: CN(C)CC(=O)Nc1ccc2[nH]c(=O)c3ccccc3c2c1
How it was run: as §1

[18] = compound: CN(CCOC1=CC=C(C=C1)C[C@H]2C(=O)NC(=O)S2)C3=CC=CC=N3 (racemic) [rosiglitazone]
How it was run: as §1

[19] = compound: CN1C2=C(C3=C1C(=O)N(N=C3)CC4=CC(=CC=C4)N)SC(=C2)S(=O)C
How it was run: as §1

[20] = compound: CN1CCC(CNc2ccc3ncc(-c4cccc(OC(F)(F)F)c4)n3n2)CC1
How it was run: as §1

Measured: log2 fold change

SMN1 (UniProt Q16637)
inactive: [1] -0.129 | [2] 0.046 | [3] 0.014 | [4] 0.043 | [5] 0.192 | [6] 0.022 | [7] 0.102 | [8] -0.071 | [9] 0.085 | [10] -0.095 | [11] -0.211 | [12] -0.37 | [13] 0.078 | [14] 0.026 | [15] -0.071 | [16] -0.001 | [17] -0.052 | [18] 0.013 | [19] 0.207 | [20] -0.052

SNAP29 (UniProt O95721)
inactive: [1] 0.032 | [2] 0.017 | [3] 0.023 | [4] 0.038 | [5] -0.082 | [6] -0.027 | [7] -0.021 | [8] -0.006 | [9] -0.008 | [10] 0.009 | [11] -0.013 | [12] 0.052 | [13] -0.028 | [14] 0 | [15] 0.022 | [16] 0.038 | [17] -0.024 | [18] 0.003 | [19] -0.036 | [20] -0.065

SPA17 (UniProt Q15506)
inactive: [1] -0.114 | [2] 0.059 | [3] -0.07 | [4] -0.064 | [5] -0.044 | [6] -0.049 | [7] 0.014 | [8] -0.029 | [9] -0.03 | [10] -0.051 | [11] 0.024 | [12] 0.043 | [13] -0.005 | [14] 0.155 | [15] 0.04 | [16] 0.025 | [17] -0.043 | [18] -0.038 | [19] 0.054 | [20] 0.059

SNCA (UniProt P37840)
inactive: [1] -0.031 | [2] 0.05 | [3] 0.037 | [4] -0.027 | [5] -0.046 | [6] -0.026 | [7] -0.042 | [8] -0.019 | [9] 0.025 | [10] -0.013 | [11] 0.038 | [12] 0.043 | [13] -0.034 | [14] -0.025 | [15] 0.038 | [16] -0.026 | [17] -0.003 | [18] -0.019 | [19] -0.038 | [20] -0.049

SMC6 isoform 2 (UniProt Q96SB8)
inactive: [1] -0.002 | [2] 0.023 | [3] -0.013 | [4] -0.053 | [5] -0.009 | [6] 0.022 | [7] -0.071 | [8] -0.035 | [9] 0.016 | [10] -0.022 | [11] 0.106 | [12] 0.138 | [13] 0.02 | [14] 0.007 | [15] -0.027 | [16] 0 | [17] 0.002 | [18] 0.025 | [19] 0.038 | [20] 0.117

SPAG7 (UniProt O75391)
inactive: [1] 0.007 | [2] -0.003 | [3] 0.004 | [4] 0 | [5] -0.012 | [6] -0.005 | [7] -0.024 | [8] -0.053 | [9] 0.015 | [10] -0.022 | [11] 0.027 | [12] 0.017 | [13] -0.008 | [14] 0.046 | [15] -0.024 | [16] -0.041 | [17] -0.069 | [18] 0.009 | [19] -0.005 | [20] -0.002

SNCG (UniProt O76070)
inactive: [1] 0.007 | [2] 0.042 | [3] 0.061 | [4] -0.007 | [5] -0.052 | [6] -0.028 | [7] 0.037 | [8] -0.001 | [9] -0.006 | [10] -0.032 | [11] 0.026 | [12] 0.102 | [13] -0.021 | [14] 0.015 | [15] 0.001 | [16] -0.023 | [17] -0.003 | [18] 0.007 | [19] -0.058 | [20] 0.019

SMAP1 isoform 2 (UniProt Q8IYB5)
inactive: [1] 0.075 | [2] -0.009 | [3] 0.095 | [4] 0.12 | [5] -0.008 | [6] 0.079 | [7] 0.043 | [8] 0.042 | [9] -0.06 | [10] 0.073 | [11] -0.018 | [12] -0.082 | [13] 0.02 | [14] 0.088 | [15] -0.011 | [16] -0.074 | [17] -0.014 | [18] 0.083 | [19] -0.057 | [20] 0.039

SMIM12 (UniProt Q96EX1)
inactive: [1] -0.032 | [2] -0.021 | [3] -0.02 | [4] -0.197 | [5] -0.045 | [6] -0.132 | [7] -0.046 | [8] 0.467 | [9] -0.008 | [10] 0.008 | [11] -0.173 | [12] -0.062 | [13] 0.032 | [14] -0.008 | [15] -0.001 | [16] -0.025 | [17] -0.088 | [18] -0.024 | [19] -0.05 | [20] 0.04

SMC1B isoform 3 (UniProt Q8NDV3)
inactive: [1] -0.031 | [2] 0.008 | [3] -0.017 | [4] -0.042 | [5] 0.069 | [6] 0.012 | [7] 0.078 | [8] -0.073 | [9] 0.084 | [10] -0.086 | [11] -0.126 | [12] -0.144 | [13] -0.069 | [14] -0.101 | [15] 0 | [16] 0.166 | [17] -0.022 | [18] -0.227 | [19] 0.039 | [20] -0.059

SMARCC2 (UniProt Q8TAQ2)
inactive: [1] -0.113 | [2] -0.066 | [3] -0.031 | [4] -0.025 | [5] 0.031 | [6] 0.059 | [7] 0.098 | [8] 0.058 | [9] 0.182 | [10] 0.065 | [11] 0.02 | [12] -0.078 | [13] 0.147 | [14] 0.001 | [15] -0.047 | [16] -0.048 | [17] 0.065 | [18] 0.061 | [19] 0.116 | [20] 0.071

Quoted at random: two records from the list.
SMARCC2 (UniProt Q8TAQ2)
inactive: [1] -0.113 | [2] -0.066 | [3] -0.031 | [4] -0.025 | [5] 0.031 | [6] 0.059 | [7] 0.098 | [8] 0.058 | [9] 0.182 | [10] 0.065 | [11] 0.02 | [12] -0.078 | [13] 0.147 | [14] 0.001 | [15] -0.047 | [16] -0.048 | [17] 0.065 | [18] 0.061 | [19] 0.116 | [20] 0.071

SNCG (UniProt O76070)
inactive: [1] 0.007 | [2] 0.042 | [3] 0.061 | [4] -0.007 | [5] -0.052 | [6] -0.028 | [7] 0.037 | [8] -0.001 | [9] -0.006 | [10] -0.032 | [11] 0.026 | [12] 0.102 | [13] -0.021 | [14] 0.015 | [15] 0.001 | [16] -0.023 | [17] -0.003 | [18] 0.007 | [19] -0.058 | [20] 0.019

Additional records.

SNRNP70 (UniProt P08621)
inactive: [1] -0.034 | [2] 0.01 | [3] -0.125 | [4] -0.054 | [5] 0.226 | [6] -0.047 | [7] -0.097 | [8] 0.04 | [9] 0.043 | [10] -0.184 | [11] 0.328 | [12] 0.213 | [13] 0.011 | [14] -0.198 | [15] -0.014 | [16] 0.208 | [17] -0.109 | [18] -0.159 | [19] 0.185 | [20] 0.331

SNRPD1 (UniProt P62314)
inactive: [1] -0.051 | [2] 0.016 | [3] -0.071 | [4] -0.051 | [5] 0.035 | [6] -0.066 | [7] -0.043 | [8] -0.073 | [9] 0.039 | [10] -0.072 | [11] 0.148 | [12] 0.154 | [13] -0.047 | [14] -0.11 | [15] -0.004 | [16] 0.006 | [17] -0.072 | [18] -0.043 | [19] 0.047 | [20] 0.01

SMIM26, A0A096LP01
inactive: [1] 0.012 | [2] 0.053 | [3] 0.023 | [4] 0.011 | [5] -0.117 | [6] -0.125 | [7] 0.006 | [8] 0.002 | [9] -0.003 | [10] 0 | [11] -0.007 | [12] -0.061 | [13] 0.076 | [14] 0.01 | [15] 0.011 | [16] -0.078 | [17] -0.033 | [18] 0.035 | [19] 0.051 | [20] -0.058

SNX8 (UniProt Q9Y5X2)
inactive: [1] 0.008 | [2] 0.007 | [3] 0.026 | [4] 0.011 | [5] 0 | [6] 0.006 | [7] -0.008 | [8] -0.016 | [9] 0.004 | [10] -0.028 | [11] 0.02 | [12] -0.013 | [13] -0.007 | [14] -0.077 | [15] -0.04 | [16] 0.032 | [17] -0.063 | [18] 0.036 | [19] -0.029 | [20] -0.009

SNRPF (UniProt P62306)
inactive: [1] -0.018 | [2] -0.069 | [3] -0.012 | [4] 0.054 | [5] 0.226 | [6] 0.047 | [7] 0.017 | [8] -0.097 | [9] 0.033 | [10] -0.022 | [11] 0.08 | [12] 0.022 | [13] -0.022 | [14] 0.071 | [15] 0.022 | [16] -0.007 | [17] -0.075 | [18] -0.054 | [19] 0.059 | [20] 0.094
